Results: PMC9493394
These are yes or no findings as the source states them, for the method shown. Binding seen in cells or lysates may run through a third protein. These calls come from enrichment with a bait or labelling near it, and not all partners need be listed.

B1: Hsp47 (SerpinH1) (protein, UniProt P50454 19-418)
chain: AEVKKPAAAAAPGTAEKLSPKAATLAERSAGLAFSLYQAMAKDQAVENILVSPVVVASSLGLVSLGGKATTASQAKAVLSAEQLRDEEVHAGLGELLRSLSNSTARNVTWKLGSRLYGPSSVSFADDFVRSSKQHYNCEHSKINFRDKRSALQSINEWAAQTTDGKLPEVTKDVERTDGALLVNAMFFKPHWDEKFHHKMVDNRGFMVTRSYTVGVMMMHRTGLYNYYDDEKEKLQIVEMPLAHKLSSLIILMPHHVEPLERLEKLLTKEQLKIWMGKMQKKAVAISLPKGVVEVTHDLQKHLAGLGLTEAIDKNKADLSRMSGKKDLYLASVFHATAFELDTDGNPFDQDIYGREELRSPKLFYADHPFIFLVRDTQSGSLLFIGRLVRPKGDKMRDEL
B2: reticulocalbin 2 (RCN2) (protein, UniProt Q14257 23-317)
chain: GKAEELHYPLGERRSDYDREALLGVQEDVDEYVKLGHEEQQKRLQAIIKKIDLDSDGFLTESELSSWIQMSFKHYAMQEAKQQFVEYDKNSDDTVTWDEYNIQMYDRVIDFDENTALDDAEEESFRKLHLKDKKRFEKANQDSGPGLSLEEFIAFEHPEEVDYMTEFVIQEALEEHDKNGDGFVSLEEFLGDYRWDPTANEDPEWILVEKDRFVNDYDKDNDGRLDPQELLPWVVPNNQGIAQEEALHLIDEMDLNGDKKLSEEEILENPDLFLTSEATDYGRQLHDDYFYHDEL
B3: RPN1 (protein, UniProt P04843 24-607)
chain: ASSEAPPLINEDVKRTVDLSSHLAKVTAEVVLAHLGGGSTSRATSFLLALEPELEARLAHLGVQVKGEDEEENNLEVRETKIKGKSGRFFTVKLPVALDPGAKISVIVETVYTHVLHPYPTQITQSEKQFVVFEGNHYFYSPYPTKTQTMRVKLASRNVESYTKLGNPTRSEDLLDYGPFRDVPAYSQDTFKVHYENNSPFLTITSMTRVIEVSHWGNIAVEENVDLKHTGAVLKGPFSRYDYQRQPDSGISSIRSFKTILPAAAQDVYYRDEIGNVSTSHLLILDDSVEMEIRPRFPLFGGWKTHYIVGYNLPSYEYLYNLGDQYALKMRFVDHVFDEQVIDSLTVKIILPEGAKNIEIDSPYEISRAPDELHYTYLDTFGRPVIVAYKKNLVEQHIQDIVVHYTFNKVLMLQEPLLVVAAFYILFFTVIIYVRLDFSITKDPAAEARMKVACITEQVLTLVNKRIGLYRHFDETVNRYKQSRDISTLNSGKKSLETEHKALTSEIALLQSRLKTEGSDLCDRVSEMQKLDAQVKELVLKSAVEAERLVAGKLKKDTYIENEKLISGKRQELVTKIDHILDAL
B4: SLC39A7 (ZIP-7) (protein, UniProt Q92504 1-469)
chain: MARGLGAPHWVAVGLLTWATLGLLVAGLGGHDDLHDDLQEDFHGHSHRHSHEDFHHGHSHAHGHGHTHESIWHGHTHDHDHGHSHEDLHHGHSHGYSHESLYHRGHGHDHEHSHGGYGESGAPGIKQDLDAVTLWAYALGATVLISAAPFFVLFLIPVESNSPRHRSLLQILLSFASGGLLGDAFLHLIPHALEPHSHHTLEQPGHGHSHSGQGPILSVGLWVLSGIVAFLVVEKFVRHVKGGHGHSHGHGHAHSHTRGSHGHGRQERSTKEKQSSEEEEKETRGVQKRRGGSTVPKDGPVRPQNAEEEKRGLDLRVSGYLNLAADLAHNFTDGLAIGASFRGGRGLGILTTMTVLLHEVPHEVGDFAILVQSGCSKKQAMRLQLLTAVGALAGTACALLTEGGAVGSEIAGGAGPGWVLPFTAGGFIYVATVSVLPELLREASPLQSLLEVLGLLGGVIMMVLIAHLE

Molecular target: WT GABAA receptor α1 subunit (bait of WT α1β2γ2 GABAA receptors) (human)
Assay: affinity purification with mass spectrometry; SILAC IP–MS/MS: heavy lysate of HEK293T cells stably expressing WT α1β2γ2 or α1(A322D)β2γ2 mixed 1:1 with light empty-vector lysate; 6 mg total protein immunoprecipitated with a mouse monoclonal anti-α1 antibody; lysis buffer 50 mM Tris pH 7.5, 150 mM NaCl, 1% Triton X-100; interactor: SILAC ratio over EV at least 1.30, p < 0.05, FDR no more than 0.10; three biological replicates

Row | binding | Binder
1 | binds | B1
2 | binds | B2
3 | binds | B3
4 | binds | B4
